Measurements as given in the supplement of paper PMC4604168 (melanoma cell lines).
Some of the results follow. Many values rest on one well or one pass, so single values are uncertain.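 Cells were imaged in 1,536-well plates, and nuclei stained with an antibody against cleaved PARP were counted against all DNA-stained nuclei to give the apoptosis fraction. Screening doses were chosen to leave most cells alive, and resting and induced cleaved-PARP levels differ strongly between cell lines.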

Columns and labels:
Experiment in all cases: cleaved PARP positive nuclei fraction relative to DMSO control; melanoma cells; higher = more apoptosis
Conditions in all cases: library dose: low library concentration; 72 h
501Mel = tested on: 501Mel
A101D = tested on: A101D
A2058 = tested on: A2058
A375 = tested on: A375
C32 = tested on: C32
CBRC013 = tested on: CBRC013 (line from a melanoma biopsy)
CBRC014 = tested on: CBRC014 (line from a melanoma biopsy)
CBRC016 = tested on: CBRC016 (line from a melanoma biopsy)
CBRC017 = tested on: CBRC017 (line from a melanoma biopsy)
CBRC034 = tested on: CBRC034 (line from a melanoma biopsy)
COLO792 = tested on: COLO792
COLO800 = tested on: COLO800
COLO829 = tested on: COLO829
G361 = tested on: G361
IPC-298 = tested on: IPC-298
IST-MEL1 = tested on: IST-MEL1
LB2518-MEL = tested on: LB2518-MEL
LOXIMVI = tested on: LOXIMVI

Structure (SMILES)	cleaved PARP positive nuclei fraction (501Mel) [%]	cleaved PARP positive nuclei fraction (A101D) [%]	cleaved PARP positive nuclei fraction (A2058) [%]	cleaved PARP positive nuclei fraction (A375) [%]	cleaved PARP positive nuclei fraction (C32) [%]	cleaved PARP positive nuclei fraction (CBRC013) [%]	cleaved PARP positive nuclei fraction (CBRC014) [%]	cleaved PARP positive nuclei fraction (CBRC016) [%]	cleaved PARP positive nuclei fraction (CBRC017) [%]	cleaved PARP positive nuclei fraction (CBRC034) [%]	cleaved PARP positive nuclei fraction (COLO792) [%]	cleaved PARP positive nuclei fraction (COLO800) [%]	cleaved PARP positive nuclei fraction (COLO829) [%]	cleaved PARP positive nuclei fraction (G361) [%]	cleaved PARP positive nuclei fraction (IPC-298) [%]	cleaved PARP positive nuclei fraction (IST-MEL1) [%]	cleaved PARP positive nuclei fraction (LB2518-MEL) [%]	cleaved PARP positive nuclei fraction (LOXIMVI) [%]
NCC(=O)Nc1ccc(-n2nc(C(F)(F)F)cc2-c2ccc3c(ccc4ccccc43)c2)cc1 + O=C(Nc1ccccc1)c1cc([N+](=O)[O-])ccc1Cl [GW9662] (first compound 1 µM, partner dose 2 µM)	455	108	62.9	6550	204	89	94.6	91.9	71.5	151	181	159	78.9	52.8	134	29.9	80.1	46.6
CCc1ccc(CCOc2ccc(CC3SC(=O)NC3=O)cc2)nc1 (configuration not stated) [pioglitazone] + CCCCCCCCCCCC1=C(O)C(=O)C=C(O)C1=O [Embelin] (first compound 2 µM, partner dose 1.2 µM)	49.9	101	66.4	93.3	59.9	132	90	53.9	96.5	75.7	61.2	57.3	95.9	57.6	205	56.6	76.1	57.1
COC(=O)c1sccc1S(=O)(=O)Nc1ccc(Nc2ccccc2)cc1OC + O=C1NC(=O)/C(=C/c2ccc(-c3ccc(F)cc3O)o2)S1 [AS252424] (first compound 1 µM, partner dose 1 µM)	111	104	20.7	120	88.1	36.9	88.7	101	37.5	92.5	48.3	44.1	118	61.7	53.5	129	182	56.9
Cc1cc([N+](=O)[O-])ccc1NS(=O)(=O)c1cc(Cl)ccc1Cl + COc1cc(N2CCC(N3CCN(C)CC3)CC2)ccc1Nc1ncc(Cl)c(Nc2ccccc2S(=O)(=O)C(C)C)n1 [NVP-TAE684] (first compound 1 µM, partner dose 0.08 µM)	48.4	350	109	78.4	198	135	150	3300	571	196	95.2	57.2	55.5	109	47.4	265	170	97.1
O=C(Nc1ccccc1)c1cc([N+](=O)[O-])ccc1Cl + O=C(O)C(=O)Nc1sc2c(c1C(=O)O)CCNC2 [TCS401] (first compound 2 µM, partner dose 1.66667 µM)	77.7	112	72.8	152	68.6	79.2	82.2	47.8	80.6	337	136	58.4	162	30.4	82.8	172	98.5	84.4
O=C(O)c1ccc(-c2c[nH]c3ncc(-c4ccccc4)cc23)cc1C1CCCC1 + CCN(CC)CCCCNc1ncc2cc(-c3cc(OC)cc(OC)c3)c(NC(=O)NC(C)(C)C)nc2n1 [PD173074] (first compound 0.16 µM, partner dose 0.1 µM)	80	167	53.4	172	183	146	115	89.9	99.1	152	110	119	184	54.1	240	64	59.5	84.6
CN(C)S(=O)(=O)c1ccc2c(c1)/C(=C/c1cc3c([nH]1)CCCC3)C(=O)N2 + COc1ccc(-c2ccc3c(N4CCOCC4)nc(N4C[C@@H](C)O[C@@H](C)C4)nc3n2)cc1CO [KU0063794] (first compound 0.4 µM, partner dose 0.02 µM)	175	187	95.6	67.6	68.7	70.8	103	21.9	101	91.4	72.4	109	96.3	230	78.5	91.4	90.2	54.2
O=C(Nc1ccccc1)c1cc([N+](=O)[O-])ccc1Cl + COc1cc2ncnc(Nc3ccc(Oc4ccccc4)cc3)c2cc1OC [SrcI1] (first compound 2 µM, partner dose 2 µM)	86.2	107	80	86.9	100	17.9	90.1	73.1	88	45.3	90.5	111	103	95.2	139	98.6	141	24.5
Oc1cc(-c2nc(-c3ccccc3)[nH]c2-c2ccncc2)ccc1Cl + O=c1cc(-c2cccc3c2Sc2ccccc2S3)oc(N2CCOCC2)c1 [KU55933] (first compound 0.2 µM, partner dose 1 µM)	91.8	58.7	136	99.7	77.7	94.9	97.1	88.8	102	289	73.9	105	63	143	169	57.3	196	49.1
O=C(O)c1ccc(-c2c[nH]c3ncc(-c4ccccc4)cc23)cc1C1CCCC1 + O=C1NC(=O)/C(=C/c2ccc(-c3ccc(F)cc3O)o2)S1 [AS252424] (first compound 0.16 µM, partner dose 1 µM)	41.1	74.3	362	184	147	430	114	66.8	127	86.7	92.4	238	78.1	180	89.7	27.7	85.5	140
COc1ccc(COc2ccc(Cc3cnc(N)nc3N)cc2OC)cc1 + Oc1nc(-c2ccc(C(F)(F)F)cc2)nc2c1CSCC2 [XAV939] (first compound 1 µM, partner dose 2 µM)	151	317	166	130	63.9	40	106	76.2	86.1	92.4	146	77.6	74.2	92.2	55.2	88.8	84.6	65.1
Oc1cc(-c2nc(-c3ccccc3)[nH]c2-c2ccncc2)ccc1Cl + Cc1cc([N+](=O)[O-])ccc1NS(=O)(=O)c1cc(Cl)ccc1Cl [FH535] (first compound 0.2 µM, partner dose 1 µM)	259	121	81.9	265	164	356	136	767	749	382	88.2	132	72.5	94.9	83.4	109	88.4	30
NCC(=O)Nc1ccc(-n2nc(C(F)(F)F)cc2-c2ccc3c(ccc4ccccc43)c2)cc1 + CCCCCCCCCCCC1=C(O)C(=O)C=C(O)C1=O [Embelin] (first compound 1 µM, partner dose 1.2 µM)	32.5	175	22.3	28.3	132	76.7	82.7	109	73.5	44.5	80.7	112	120	95.5	38.3	83.8	45.4	35.2
COc1ccc(-c2ccc3c(N4CCOCC4)nc(N4C[C@@H](C)O[C@@H](C)C4)nc3n2)cc1CO + Cc1cc([N+](=O)[O-])ccc1NS(=O)(=O)c1cc(Cl)ccc1Cl [FH535] (first compound 0.02 µM, partner dose 1 µM)	35.8	46.8	117	348	252	123	220	829	237	101	170	145	239	41.9	60.6	159	80.3	49.9
CCc1ccc(CCOc2ccc(CC3SC(=O)NC3=O)cc2)nc1 (configuration not stated) [pioglitazone] + O=c1cc(-c2cccc3c2Sc2ccccc2S3)oc(N2CCOCC2)c1 [KU55933] (first compound 2 µM, partner dose 1 µM)	44.2	114	209	139	43.7	94.1	110	122	80.1	57.9	79.3	132	95.4	52.7	28.7	43.4	399	64.2
COc1ccc(COc2ccc(Cc3cnc(N)nc3N)cc2OC)cc1 + Oc1cc(-c2nc(-c3ccccc3)[nH]c2-c2ccncc2)ccc1Cl [L779450] (first compound 1 µM, partner dose 0.2 µM)	121	144	61.3	73.8	94.2	258	105	19.8	79	119	244	201	39.9	122	39.6	76.9	84.5	71.1
CN(C)S(=O)(=O)c1ccc2c(c1)/C(=C/c1cc3c([nH]1)CCCC3)C(=O)N2 + O=S(=O)(c1ccccc1)N(CC(F)(F)F)c1ccc(C(O)(C(F)(F)F)C(F)(F)F)cc1 [T0901317] (first compound 0.4 µM, partner dose 1.4 µM)	190	66.2	49.5	150	31	67.4	106	162	105	99.7	39	43.9	173	149	216	93	257	42
NCC(=O)Nc1ccc(-n2nc(C(F)(F)F)cc2-c2ccc3c(ccc4ccccc43)c2)cc1 + COc1ccc2c(c1)CCC1C2CCC2(C)C(NCCCCCCN3C(=O)C=CC3=O)CCC12 [U73122] (first compound 1 µM, partner dose 0.4 µM)	279	122	90	5480	84	180	95.1	140	136	85.3	128	74.1	137	111	110	132	74.3	68.8
COc1cc2ncnc(Nc3ccc(Oc4ccccc4)cc3)c2cc1OC + Cn1cc(/C=C2\C(=O)Nc3cccnc32)c2ccccc21 [GW441756] (first compound 2 µM, partner dose 0.4 µM)	72.8	258	132	146	185	48.7	101	135	67.2	83.4	22.8	102	50.8	63.7	140	58.8	58.1	113

Reformatted: entries from further up.

| Structure (SMILES) | cleaved PARP positive nuclei fraction (501Mel) [%] | cleaved PARP positive nuclei fraction (A101D) [%] | cleaved PARP positive nuclei fraction (A2058) [%] | cleaved PARP positive nuclei fraction (A375) [%] | cleaved PARP positive nuclei fraction (C32) [%] | cleaved PARP positive nuclei fraction (CBRC013) [%] | cleaved PARP positive nuclei fraction (CBRC014) [%] | cleaved PARP positive nuclei fraction (CBRC016) [%] | cleaved PARP positive nuclei fraction (CBRC017) [%] | cleaved PARP positive nuclei fraction (CBRC034) [%] | cleaved PARP positive nuclei fraction (COLO792) [%] | cleaved PARP positive nuclei fraction (COLO800) [%] | cleaved PARP positive nuclei fraction (COLO829) [%] | cleaved PARP positive nuclei fraction (G361) [%] | cleaved PARP positive nuclei fraction (IPC-298) [%] | cleaved PARP positive nuclei fraction (IST-MEL1) [%] | cleaved PARP positive nuclei fraction (LB2518-MEL) [%] | cleaved PARP positive nuclei fraction (LOXIMVI) [%] |
| --- | --- | --- | --- | --- | --- | --- | --- | --- | --- | --- | --- | --- | --- | --- | --- | --- | --- | --- |
| O=C(Nc1ccccc1)c1cc([N+](=O)[O-])ccc1Cl + O=C(O)C(=O)Nc1sc2c(c1C(=O)O)CCNC2 [TCS401] (first compound 2 µM, partner dose 1.66667 µM) | 77.7 | 112 | 72.8 | 152 | 68.6 | 79.2 | 82.2 | 47.8 | 80.6 | 337 | 136 | 58.4 | 162 | 30.4 | 82.8 | 172 | 98.5 | 84.4 |
| NCC(=O)Nc1ccc(-n2nc(C(F)(F)F)cc2-c2ccc3c(ccc4ccccc43)c2)cc1 + CCCCCCCCCCCC1=C(O)C(=O)C=C(O)C1=O [Embelin] (first compound 1 µM, partner dose 1.2 µM) | 32.5 | 175 | 22.3 | 28.3 | 132 | 76.7 | 82.7 | 109 | 73.5 | 44.5 | 80.7 | 112 | 120 | 95.5 | 38.3 | 83.8 | 45.4 | 35.2 |
| COc1ccc(COc2ccc(Cc3cnc(N)nc3N)cc2OC)cc1 + Oc1cc(-c2nc(-c3ccccc3)[nH]c2-c2ccncc2)ccc1Cl [L779450] (first compound 1 µM, partner dose 0.2 µM) | 121 | 144 | 61.3 | 73.8 | 94.2 | 258 | 105 | 19.8 | 79 | 119 | 244 | 201 | 39.9 | 122 | 39.6 | 76.9 | 84.5 | 71.1 |
